These are yes or no findings as the source states them, for the method shown. In cells and extracts the contact can be indirect. A result given as binding can be weak or reduced; the word gives no strength.
Molecular target: GST-Bag-1L fusion protein with K279 mutated alone (human) (UniProt Q99933)
Assay: pull-down; GST-Bag-1L fusion proteins (wild type and BAG domain point mutants) with lysates from LNCaP cells; only the target purified

Sequences of proteins named here, by UniProt entry; tags and fusion partners are left off. A change or cut given only in a name is not applied to a line headed by its entry.
UniProt Q99933: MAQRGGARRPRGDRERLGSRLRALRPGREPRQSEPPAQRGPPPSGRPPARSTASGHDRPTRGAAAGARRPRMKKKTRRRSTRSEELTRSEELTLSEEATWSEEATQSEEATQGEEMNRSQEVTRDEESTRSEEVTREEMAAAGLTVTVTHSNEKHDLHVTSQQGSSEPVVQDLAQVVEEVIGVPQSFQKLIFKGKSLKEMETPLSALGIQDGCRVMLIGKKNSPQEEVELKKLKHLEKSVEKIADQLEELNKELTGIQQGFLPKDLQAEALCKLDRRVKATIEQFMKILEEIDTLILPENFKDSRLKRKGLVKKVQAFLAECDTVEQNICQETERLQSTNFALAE
UniProt P10275: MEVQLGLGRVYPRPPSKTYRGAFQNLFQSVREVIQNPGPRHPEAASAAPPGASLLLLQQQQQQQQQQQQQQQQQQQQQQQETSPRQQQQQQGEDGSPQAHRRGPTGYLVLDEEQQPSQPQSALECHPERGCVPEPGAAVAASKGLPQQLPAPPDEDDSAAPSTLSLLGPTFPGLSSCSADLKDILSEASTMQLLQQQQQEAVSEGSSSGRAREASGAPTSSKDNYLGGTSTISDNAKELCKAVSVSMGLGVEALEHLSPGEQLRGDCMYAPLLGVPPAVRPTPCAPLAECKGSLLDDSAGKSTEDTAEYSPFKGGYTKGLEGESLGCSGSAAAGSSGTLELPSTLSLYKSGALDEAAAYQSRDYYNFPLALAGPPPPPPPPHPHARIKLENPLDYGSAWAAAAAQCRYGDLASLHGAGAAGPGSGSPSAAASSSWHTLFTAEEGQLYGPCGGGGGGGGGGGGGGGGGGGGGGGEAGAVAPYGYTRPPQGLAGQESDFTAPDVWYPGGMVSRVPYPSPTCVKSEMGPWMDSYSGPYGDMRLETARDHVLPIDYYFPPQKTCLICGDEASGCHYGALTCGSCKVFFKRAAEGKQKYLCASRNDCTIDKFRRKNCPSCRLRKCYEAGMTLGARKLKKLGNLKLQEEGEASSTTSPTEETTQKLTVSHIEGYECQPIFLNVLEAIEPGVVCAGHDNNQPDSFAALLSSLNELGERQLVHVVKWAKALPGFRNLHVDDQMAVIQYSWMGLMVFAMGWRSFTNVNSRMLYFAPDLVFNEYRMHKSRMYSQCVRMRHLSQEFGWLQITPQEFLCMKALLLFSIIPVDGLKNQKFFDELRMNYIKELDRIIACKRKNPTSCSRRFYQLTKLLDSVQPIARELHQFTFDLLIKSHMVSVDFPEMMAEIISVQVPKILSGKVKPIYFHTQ

## androgen receptor, endogenous in LNCaP cells (from UniProt P10275 1-920)
  binding: binds

Reference: article PMC5629025 (2017)
